The nature of the assay: qHTS Assay for Lipid Storage Modulators in Drosophila S3 Cells.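 For cell number change: cells counted by Cell Tracker Red CMTPX staining in the red channel.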 Particulars: BODIPY lipid droplet fluorescence, 18-24 h; for cell number change: measured here: cell count max response, cells fed with added oleic acid. A digest of the protocol:
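Laser-scanning cytometry quantifies lipid droplet accumulation (500–530 nm total intensity; droplet/cell object ratio) in oleic acid-fed (400 uM added) Drosophila S3 cells treated with a concentration series. 20 uM Triacsin C defined 100% inhibition.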
Background: qHTS replaces the single test concentration by a dilution series.

[1] abbreviates: measured here: cell number channel AC50, cells fed with added oleic acid.
Where [2] appears, read: measured here: lipid fluorescence (Fed channel) AC50, cells fed with added oleic acid.

Some of the results follow. Shown are side measurements of this screen, not its main read-out; they come without a call. Compounds called inactive in the main read-out are mostly missing here. The note in brackets gives the kind of curve behind each potency; many fits are weak.

Broadly, the AC50 is the midpoint of the concentration-response curve, whichever way the signal moves. Lower therefore signals greater potency. Regarding `CCS(=O)(=O)N1CCC(C(=O)NCCN2CCOCC2)CC1`, the cell number change is 30.5%. The AC50 under setting [1] was 29.1 µM [rising, single point]. For the same molecule, under setting [2], the concentration at half-maximal activity (AC50) was 29.1 µM [rising, single point].
For `COc1ccc(OC)c(-n2nnnc2SCC(=O)Nc2ccc(C(=O)N3CCCCC3)cc2)c1`, the cell number change came to 14.6%. For the same molecule, the AC50 under setting [1] was 0.326 µM [rising, full curve, poor fit]. Also, the AC50 under setting [2] is 0.58 µM [rising, full curve].
Consider `COc1ccccc1/C=C/C(=O)NCC(=O)N/N=C/c1ccc(C(=O)O)cc1`, for which the cell number change is -10.5%. Also, under setting [2], the AC50 was 0.0058 µM [falling, full curve, poor fit].
For the molecule `CCc1nn(CCCC(=O)N(C)Cc2ccccc2)c(=O)c2cc3occc3n12`, the cell number change turned out to be 5.73%.
As to `CC(=O)c1ccc(OCCCC(=O)NC2CCCCC2C)cc1` (stereo not given), the cell number change stood at 1.21%. The AC50 under setting [2] is 18.4 µM [rising, single point].
`O=C(Cc1ccc(Cl)cc1)NN1C(=O)c2ccccc2C1=O`: the cell number change was found to be 30.4%. Moreover, the concentration at half-maximal activity (AC50) under setting [1] is 20.6 µM [rising, single point]. Further, the AC50 under setting [2] is 0.231 µM [falling, full curve, poor fit].
Turning to `COCC(=O)N(Cc1cc2cc(OC)ccc2[nH]c1=O)c1ccc(C)cc1`, the cell number change was -14.8%. Moreover, under setting [2], the AC50 was 0.58 µM [falling, partial curve].
For the molecule `Cc1ccc(-c2nc(CN(CC3CCC3)CC3CCCO3)c(C)o2)s1` (stereo not given), the cell number change is -16.1%. Under setting [2], the AC50 was 0.103 µM [falling, full curve, poor fit].
For the molecule `COc1ccccc1NC(=O)CSCc1cc(=O)n2c(C)csc2n1`, the cell number change is -13.4%. For the same molecule, the AC50 under setting [2] was 0.731 µM [falling, single point].
Consider `CCc1cc(C(=O)N/N=C/c2c(C)[nH]c3ccccc23)cs1`, for which the cell number change is 32.7%. Moreover, under setting [1], the AC50 is 2.91 µM [rising, partial curve]. In addition, the AC50 under setting [2] was 1.84 µM [rising, partial curve].
Turning to `COc1ccc(-c2[nH]ncc2CN(C)Cc2nonc2C)c(OC)c1`, the cell number change is 23.6%. Under setting [2], the AC50 was 5.17 µM [rising, partial curve].
For the molecule `COC(=O)Nc1ccc(S(=O)(=O)N2CCN(CCN3C(=O)C4C5C=CC(C5)C4C3=O)CC2)cc1` (stereo not given), the cell number change came out at 40.1%.
With `COc1ccc(CCNC(=O)CN(c2cccc([N+](=O)[O-])c2)S(C)(=O)=O)cc1OC`, the cell number change came out at 117%. Moreover, the AC50 under setting [1] is 20.6 µM [rising, partial curve]. The AC50 under setting [2] was 20.6 µM [rising, partial curve].
On to `CC1(C)CC(=O)C=C(NCCN2CCNCC2)C1`, for which the cell number change is -24.8%. For the same molecule, the AC50 under setting [1] is 0.13 µM [falling, full curve, poor fit]. The half-maximal activity concentration (AC50) under setting [2] was 1.46 µM [falling, full curve, poor fit].
Take `CN(C)S(=O)(=O)c1cccc(COC(=O)CNC(=O)c2ccc(Br)o2)c1`: the cell number change was 12.4%. Besides, the AC50 under setting [2] was 2.06 µM [falling, single point].
Turning to `CCN1N=C(c2ccccc2)Cn2c1nc1ccccc12`, the AC50 under setting [1] was 1.16 µM [rising, partial curve] and the AC50 under setting [2] was 0.517 µM [rising, full curve].
On to `O=C(CSc1ccc(Cl)cc1)NC(=O)c1ccccc1`, for which the cell number change is -42.9%. For the same molecule, the AC50 under setting [1] is 0.82 µM [falling, full curve]. In addition, the AC50 under setting [2] was 0.517 µM [falling, full curve].
On to `COC(=O)c1cc2oc3ccccc3c2n1CC(=O)Nc1ccccc1OC`, for which the AC50 under setting [2] is 0.58 µM [rising, full curve, poor fit].
Turning to `COc1cc(S(=O)(=O)N(C)C)ccc1Br`, the cell number change was -10.1%. Moreover, the AC50 under setting [2] was 23.1 µM [falling, partial curve].
As to `CC(=O)NNC(=S)NC(=O)C(c1ccccc1)c1ccccc1`, the cell number change is -28%. For the same molecule, the AC50 under setting [2] was 0.411 µM [falling, partial curve].
`O=C(Nc1ccc(S(=O)(=O)Nc2nccs2)cc1)c1cccc(F)c1`: the cell number change came to 16.7%.
With `COc1ccc(Nc2nc(NCC3CCCO3)c3ccccc3n2)c(OC)c1` (stereo not given), the cell number change is -48.7%. Also, under setting [1], the AC50 is 18.4 µM [falling, single point].
With `O=C(NCCN1CCOCC1)c1ccc(/C=C2\Sc3ccccc3N(Cc3ccccc3F)C2=O)cc1`, the cell number change was -11.1%.
With `COc1ccc(C(CNC(=O)CSc2ccccc2C)N(C)C)cc1` (stereo not given), the cell number change was 16.9%. In addition, the AC50 under setting [2] was 3.26 µM [falling, single point].
`CCCCCn1c(=O)[nH]c2cc(C(=O)NCCN3CCC(C)CC3)ccc2c1=O`: the cell number change was -0.855%.
As to `COc1ccc(N(CC(=O)N/N=C/c2cccs2)S(=O)(=O)c2ccc(OC)c(OC)c2)cc1`, the cell number change was determined as 18.1%. In addition, the AC50 under setting [2] was 29.1 µM [falling, single point].
Consider `Cc1ccc2nc(SC(C(=O)Nc3ccc(F)cc3)c3ccccc3)[nH]c2c1` (stereo not given), for which the cell number change was -29%. Moreover, under setting [2], the AC50 is 20.6 µM [falling, single point].
For the molecule `CCOc1ccccc1CNC(=O)CN1C(=O)CSc2ccc(S(=O)(=O)N3CCOCC3)cc21`, the cell number change is -23.6%. Moreover, under setting [2], the half-maximal activity concentration (AC50) is 29.1 µM [rising, single point].
Turning to `CCc1ccc(-c2cc(C(=O)Nn3cnnc3)c3ccccc3n2)cc1`, the cell number change was 30.1%. Further, under setting [1], the AC50 is 13 µM [rising, single point]. Besides, the AC50 under setting [2] was 16.4 µM [rising, partial curve].
`CC1CN(C(=O)c2cccc(Oc3ccccc3)c2)CC(C)O1` (stereo not given): the cell number change was -19.9%.
`Cc1cc(C)cc(OCC(=O)Nc2nc(-c3cccnc3)cs2)c1`: the cell number change is -40.5%. For the same molecule, the AC50 under setting [1] is 35.5 µM [falling, single point]. For the same molecule, the AC50 under setting [2] was 12.6 µM [falling, single point].
For `Cn1c(CCN2CCOCC2)nc2cc(NC(=O)c3cccs3)ccc21`, the cell number change was -14.8%. Besides, the AC50 under setting [2] was 3.26 µM [falling, full curve].
As to `COc1ccc(S(=O)(=O)N2CCC(C(=O)Nc3nnc(CCN4CCCCC4)s3)CC2)cc1`, the cell number change was determined as 6.54%.
Regarding `CC(=O)c1cc(C#N)c(N2CC(C)OC(C)C2)nc1C` (stereo not given), the cell number change is -1.81%. The AC50 under setting [2] is 1.64 µM [rising, partial curve].
Take `C/C(=N\OCC(=O)OCC(=O)Nc1cc(S(C)(=O)=O)ccc1Cl)c1ccc2c(c1)OCO2`: the cell number change was -7.42%. The AC50 under setting [2] was 0.00461 µM [rising, full curve, poor fit].
As to `Cc1ccc(NC2CCCN(C(=O)c3ccc4nccnc4c3)C2)cc1C` (stereo not given), the cell number change came out at 14.7%. The AC50 under setting [2] was 18.4 µM [rising, single point].
Consider `COc1ccc(NC(=O)CN(C)S(=O)(=O)c2ccccc2)cc1`, for which the AC50 under setting [1] was 1.84 µM [falling, partial curve] and the half-maximal activity concentration (AC50) under setting [2] was 14.6 µM [falling, partial curve].
With `CCOC(=O)CNc1nc2ccccc2n2c(C)nnc12`, the cell number change turned out to be 8.31%.
Consider `COc1cccc(/C=N/n2c(COc3ccccc3)n[nH]c2=S)c1OC`, for which the cell number change worked out at 12.5%. Moreover, the AC50 under setting [2] was 29.1 µM [falling, single point].
With `CCOC(=O)C1CCN(C(=O)CNC(=O)Cn2c(C)cc3ccccc3c2=O)CC1`, the cell number change was -1.59%. Further, under setting [2], the AC50 is 29.1 µM [falling, single point].
Take `Cc1ccc(NC(=O)[C@H](NC(=O)[C@@H]2Cc3ccccc3CN2)c2ccccc2)c(C)c1`: the cell number change was -8.94%. Further, under setting [2], the AC50 was 29.1 µM [rising, single point].
With `CSc1nc(Cl)cc(=O)[nH]1`, the cell number change came out at 48.6%. In addition, under setting [1], the AC50 was 2.31 µM [rising, partial curve].
With `COc1ccc(CCNC(=O)c2cc3sc(Cl)cc3n2C)cc1OC`, the cell number change is -13.1%. In addition, the AC50 under setting [2] is 16.4 µM [falling, single point].
Consider `C/C(CC(=O)Nc1cc(Cl)ccc1C)=N\NC(=O)C(=O)N1CCCC1`, for which the cell number change came to 64.1%. Moreover, the AC50 under setting [1] is 11.6 µM [rising, partial curve, poor fit]. The AC50 under setting [2] is 1.46 µM [rising, full curve].
On to `CCOc1ccccc1NC(=O)C1CCN(S(=O)(=O)c2c(C)noc2C)CC1`, for which the cell number change was -87.2%. Moreover, under setting [1], the AC50 is 25.9 µM [falling, partial curve, poor fit]. In addition, the AC50 under setting [2] was 20.6 µM [falling, partial curve].
For the molecule `CCC(=O)N(Cc1cc2ccc(C)cc2[nH]c1=O)c1ccccc1OC`, the cell number change is 18.4%. Moreover, the AC50 under setting [2] is 9.2 µM [rising, partial curve].
For the molecule `C/C(=N\NC(=O)CCc1c[nH]c2ccccc12)c1ccc([N+](=O)[O-])cc1`, the cell number change was 7.41%. In addition, the AC50 under setting [1] is 0.651 µM [falling, single point]. The AC50 under setting [2] is 18.4 µM [falling, partial curve].
`Cc1ccc(C)c(N2CCN(C(=O)C(Cc3ccccc3)n3cccc3)CC2)c1` (stereo not given): the cell number change was determined as 9.08%. For the same molecule, the AC50 under setting [2] was 0.116 µM [rising, full curve].
Regarding `O=C(COc1ccc(C2SCCS2)cc1)Nc1ccc(Cl)cc1`, the cell number change is -3.53%. For the same molecule, the AC50 under setting [2] was 0.366 µM [falling, partial curve, poor fit].
Regarding `Cc1nnc(NCc2ccccc2)c2ccccc12`, the cell number change is -11.4%. The AC50 under setting [2] was 6.51 µM [rising, single point].
On to `Cc1nc(SCC(=O)N2CCN(C(=O)c3cccs3)CC2)c2c(C)c(C)sc2n1`, for which the cell number change is -7%.
As to `CCCCCN(C(=O)COC(=O)c1ccc(C)cc1)c1c(N)n(CCCC)c(=O)[nH]c1=O`, the cell number change is -25.9%. Further, the half-maximal activity concentration (AC50) under setting [1] is 0.146 µM [falling, full curve, poor fit]. Further, the AC50 under setting [2] is 1.16 µM [falling, full curve].
Take `Cc1cc[n+](-c2ccccc2)c2ccccc12`: the cell number change is -59.7%.
In the case of `Cc1nc(SCC(=O)NC(C)(C)C)c2c(-c3cccs3)csc2n1`, the cell number change is -4.16%. The AC50 under setting [1] was 0.411 µM [rising, partial curve, poor fit]. Besides, the AC50 under setting [2] was 18.4 µM [rising, partial curve].
In the case of `Cc1nc2c(C)cccc2c2c1CCS2`, the cell number change is -1.55%.
`CC1=NOC(=O)/C1=C\c1ccc(-c2ccc(Br)cc2)o1`: the cell number change is -65.4%. Further, the AC50 under setting [1] is 29.1 µM [falling, single point]. Further, the AC50 under setting [2] is 23.1 µM [falling, single point].
In the case of `Cc1ccc(CSCc2ccc(C(=O)NC3CC3)o2)cc1`, the cell number change came out at 6.6%. Besides, the AC50 under setting [1] is 6.51 µM [falling, partial curve, poor fit]. Also, under setting [2], the AC50 is 18.4 µM [falling, partial curve].
Regarding `CCN1CCN(CCCNc2ncnc3nc[nH]c23)CC1`, the cell number change is -8.59%. The AC50 under setting [2] was 14.6 µM [falling, partial curve].
